PubChem BioAssay AID504764 | Drosophila RNAi Screening Center – 2011

- Test: 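Knock-downs that raise or lower a Notch target reporter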 (primary screen)
- Cell system: Drosophila Kc167 cells
- Reagent: long dsRNA against Drosophila genes
- Time to read-out: about 5 days (4 days dsRNA, then 24 h after transfection)
- Treatment: transfection of constitutively active membrane-tethered Notch lacking the extracellular domain, read 24 h later
- Measured: 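Light from a Notch-responsive E(spl)m3 luciferase reporter under active Notch, with control-promoter and no-Notch reporter wells to normalise; raw counts from paired wells a and b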
- Direction: induced reporter light, run 1, well a and induced reporter light, run 1, well b: higher = more light from the Notch target reporter with active Notch; control promoter light, run 1, well a and control promoter light, run 1, well b: higher = more light from the viral control promoter (cell number, transfection, viability); uninduced reporter light, run 1, well a: higher = more light from the Notch target reporter without active Notch
- Active means: 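Hit if the duplicate-averaged log2 ratio of induced to control-promoter light gives a plate-wise z beyond ±2, or induced to uninduced beyond ±1.8; weak-control or discordant-duplicate wells dropped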
- Meaning of the calls: active = modifier hit (raised or lowered Notch signal); inactive = not a hit
In all, the deposit lists about 22,000 reagents; below is an unselected part of those that have a named target and a result. In the full data, 403 (1.9%) were called active. 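Unnormalised raw counts per well; ratio z-scores behind the hit calls and whether each hit raises or lowers signal are not deposited.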 Unmarked entries are inactive. Reagents against one gene are numbered here. A plus sign joins genes that one reagent is predicted to hit. Not stated in the record: the amount of reagent.

target,dsRNA no.,"induced reporter light, run 1, well a","induced reporter light, run 1, well b","control promoter light, run 1, well a","control promoter light, run 1, well b","uninduced reporter light, run 1, well a"
Osi5,1,87445,92945,91660,67815,7895
CG30458,1,92035,80385,84670,1.10e5,7935
Spn53F,1,1.44e5,1.07e5,1.06e5,1.29e5,9045
CG1847,1,2.07e5,2.16e5,2.35e5,2.01e5,13365
CG13010,1,85560,65585,89390,83075,7575
D,1,1.88e5,1.64e5,1.63e5,2.45e5,8575
FucTB,1,1.09e5,1.65e5,78725,86380,19585
Nox,1,1.42e5,1.19e5,1.22e5,1.17e5,13000
Nox,2,1.20e5,1.11e5,1.88e5,1.42e5,10595
CG1840,1,1.65e5,1.35e5,1.89e5,2.26e5,11220
Gr64d + Gr64e,1,1.34e5 (active),1.26e5,1.64e5,1.48e5,10215
laza,1,1.32e5,1.49e5,71145,88945,8880
Rnf146,1,1.03e5,1.24e5,1.23e5,1.25e5,8692
Met,1,1.17e5,1.10e5,1.80e5,1.78e5,8405
IntS9,1,1.06e5,1.23e5,56005,70620,12215
CG4650,1,1.05e5,1.28e5,1.37e5,1.42e5,10870
CG31782 (retired record),1,99370,1.07e5,84080,84975,7750
CG31782 (retired record),2,62250,88305,78490,88395,7890
lectin-37Db,1,50790,52190,53685,47360,2720
GstD3,1,71240,73275,65190,51135,4225
Cdk12,1,47485,73610,30415,35245,4650
Su(var)3-7,1,1.68e5,1.91e5,1.48e5,1.83e5,13275
GstE6,1,45290,27955,39125,25805,3310

Next part; the last 7 above are carried over.
target,dsRNA no.,"induced reporter light, run 1, well a","induced reporter light, run 1, well b","control promoter light, run 1, well a","control promoter light, run 1, well b","uninduced reporter light, run 1, well a"
CG31782 (retired record),1,99370,1.07e5,84080,84975,7750
CG31782 (retired record),2,62250,88305,78490,88395,7890
lectin-37Db,1,50790,52190,53685,47360,2720
GstD3,1,71240,73275,65190,51135,4225
Cdk12,1,47485,73610,30415,35245,4650
Su(var)3-7,1,1.68e5,1.91e5,1.48e5,1.83e5,13275
GstE6,1,45290,27955,39125,25805,3310
CG17760,1,1.20e5,1.35e5,1.68e5,1.66e5,12670
CG12661,1,1.64e5,1.60e5,2.93e5,2.58e5,12085
Sou,1,21665,19925,32855,18620,1460
Zip48C,1,1.59e5,1.08e5,1.09e5,1.29e5,10405
PCID2,1,1.32e5,1.63e5,1.34e5,77605,15355
Polr2J,1,1.14e5,1.34e5,1.38e5,1.42e5,7750
IleRS-m,1,77850,1.00e5,1.09e5,1.09e5,4778
dx,1,1.33e5,1.57e5,2.65e5,2.20e5,10555
l(3)72Dp,1,1.72e5,1.80e5,2.12e5,2.15e5,10055
kipf,1,93245,93300,1.07e5,79575,7260
CG5439,1,2.30e5,2.10e5,1.87e5,2.15e5,18182
smo,1,2.41e5,2.17e5,1.98e5,2.57e5,22878
CG7611,1,1.53e5,1.62e5,1.03e5,93320,9805
CG12253,1,3.25e5,2.84e5,2.32e5,2.17e5,19820
CG5087,1,2.00e5,2.59e5,3.02e5,2.46e5,11635
Alg7,1,2.05e5,2.47e5,1.75e5,1.92e5,15520
Alg7,2,1.26e5,1.27e5,1.05e5,1.08e5,9685
CG42324,1,2.43e5 (active),2.02e5,1.78e5,1.76e5,7965
CG42324,2,1.00e5,1.12e5,1.62e5,1.49e5,4820
eRF1,1,20560,18165,24705,21045,1575
l(1)sc,1,1.62e5,1.49e5,2.36e5,2.25e5,12515
CG33269,1,1.18e5,1.09e5,1.22e5,1.26e5,10285
CG34462,1,2.81e5,2.07e5,2.59e5,2.05e5,14020
Pde6,1,1.28e5,1.03e5,1.21e5,1.09e5,9755
Pde6,2,2.53e5,2.26e5,1.83e5,1.90e5,16140
Pde6,3,2.09e5,2.46e5,2.17e5,2.19e5,17085
Or85d,1,49850,59075,51320,36995,3735
